In the supplement of paper PMC3334620:
The full ranking holds about 33,000 sequences; the median of “E-score (-0.5 to 0.5)” is about -0.0014, and the highest 2% start at about 0.25. The list shows a part of the results.

target: T1, Cad1 (UniProt P24813); test: PBM E-score (8-mer binding enrichment) (E-score (-0.5 to 0.5)); higher = stronger / more preferred TF binding; settings: protein concentration: 100 nM; construct: GST-full length
T1 sequence: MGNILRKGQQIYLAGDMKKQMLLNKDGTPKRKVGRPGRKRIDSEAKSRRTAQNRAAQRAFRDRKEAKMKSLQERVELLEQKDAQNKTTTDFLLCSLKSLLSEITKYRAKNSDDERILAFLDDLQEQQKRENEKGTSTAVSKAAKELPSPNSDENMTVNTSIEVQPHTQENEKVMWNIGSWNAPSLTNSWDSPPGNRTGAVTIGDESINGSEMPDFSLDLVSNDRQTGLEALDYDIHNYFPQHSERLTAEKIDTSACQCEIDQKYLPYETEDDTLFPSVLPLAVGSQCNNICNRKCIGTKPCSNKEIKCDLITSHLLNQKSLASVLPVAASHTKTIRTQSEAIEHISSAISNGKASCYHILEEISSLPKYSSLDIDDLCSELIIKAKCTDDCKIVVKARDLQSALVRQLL
In short: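 Each ungapped eight-base word and its reverse complement, pooled, received an E-score from the Universal PBM Analysis Suite. Underlying scans, normalised with masliner, recorded fluorescent anti-GST bound to GST-tagged yeast transcription factors. These were applied at about 100-200 nM to universal all-10-mer Agilent arrays double-stranded by primer extension.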

Sequence | PBM E-score
AGCATTTG | 0.17
AAAGAAGG | -0.166
GCGAAAGC | -0.0648
AGTACAGG | 0.141
ATAATGTC | 0.157
AATCAAGT | 0.0792
AACTATGT | 0.09
ACTAGAAT | 0.0557
CCGGGGAG | -0.0528
ACCAGGGA | -0.216
ACTTCCAA | -0.0238
ATGCACAT | 0.0489
ATGTAAGA | 0.227
ACACGACG | 0.169
GTGACTCA | -0.0941
ACCACCTG | -0.0241
GCAGTCAC | 0.0645
CAAACCGC | -0.0417
ACGCGCAA | 0.206
AAGGGCTC | -0.164
CGATGCCA | -0.133
CACTCATA | 0.0535
AATTGTTG | -0.0461
GATAAAGA | -0.0858
ACAGATTG | -0.0204

6 records picked at random from the list so far:
Sequence | PBM E-score
AAGGGCTC | -0.164
AATTGTTG | -0.0461
ACACGACG | 0.169
ACCAGGGA | -0.216
ATAATGTC | 0.157
ACAGATTG | -0.0204

The list continues.

Sequence | PBM E-score
CGGGGTGC | -0.142
AAACTGCT | -0.0842
CCTGCTTA | 0.0731
GAGATGTA | -0.00719
CTGCTGTA | -0.0378
GAAGAAGA | -0.0562
ATCCCCTC | -0.154
CGTACGAA | 0.0708
CTTGTTAA | -0.0916
AACTGCCT | 0.0149
AAACTGTC | -0.0464
CTCTTCAA | -0.221
ACGAACTA | 0.143
TCGGTCCA | -0.0769
ATGGCGAC | -0.083
GTACTGTA | -0.187
ACTAATAG | 0.325
AAACTGAC | -0.0422
GATTTTCC | 0.0663
AAACACAG | 0.188
CCCGTTAC | -0.0424
TCGTCAAA | 0.106
AAGCTCCG | -0.059
AGCGAAGA | -0.118
CTACGGTA | -0.0445

Sequence | PBM E-score
CTTTAACA | 0.0123
GTTAATTA | 0.23
AGAGTGAT | 0.0957
CGCGGCGA | 0.166
AACGGACG | 0.00202
ATGTTCTC | 0.0835
CTACTTTC | -0.066
AGCCGGGA | -0.0305
ACGGTTCT | -0.0783
ATGTCAGC | 0.315
CGGTCGAC | 0.208
GTGTGCGA | 0.0188
GTTGAGGA | -0.0239
AAAATAAA | 0.128
ATACCCTC | -0.0628
CCGCATTA | 0.172
AGTTATGA | 0.133
ATCGAGTA | 0.0173
TCCACTCA | -0.0328
CTTTGTGC | 0.0539
CGGCGAAC | -0.00146
ATTCAAAA | 0.187
TGATGCCA | 0.0577
CGGTTGTA | -0.11
AAGGGTTG | 0.035

Sequence | PBM E-score
ACTAGTCA | -0.144
CTCGCATA | -0.0526
ATACAGAT | 0.182
AAATATCA | 0.248
GTGCCAAA | 0.103
CCCGATAC | 0.0456
CCGGCCCA | -0.261
CTACGAAC | 0.0364
AAGTTACC | 0.0597
TCTGAACA | 0.184
GAAACGTC | 0.0141
CCAATAGG | -0.108
ATGGTCTA | -0.112
CTATTAGA | -0.057
GCCTTAGC | 0.0664
GTGGTCTA | -0.143
ATTTTCGA | 0.0859
GATGTCCC | -0.205
ACGATGCT | -0.135
AACTAGAA | -0.0141
GTCAGGAC | 0.0682
CCTAACCC | -0.343
CTAGTAGA | -0.087
CACGGCCC | -0.113
CTTGGGAA | 0.0607

Sequence | PBM E-score
AGCGCCCG | 0.0761
ACACCGTC | 0.0723
CAGTTGAC | 0.0173
CCGCGCCA | -0.0216
GCGTTGAA | 0.0746
AATAGAAC | 0.158
TGAACTCA | 0.0525
GCCCTGAA | 0.0233
AATCGCTA | -0.0577
CCTAAAGC | -0.12
ATGAAATA | 0.213
GGGTAGAA | -0.0534
ACCCAACG | -0.033
ATCCATAC | 0.0456
GGGAGTAC | -0.141
GCAGGCCC | -0.291
CTTCAACC | 0.112
ATATGGAC | 0.0863
CCCATTCC | -0.265
AAACTCCC | 0.026
AAGATTAG | 0.144
CAACTGGG | -0.345
GATCCCCA | -0.0705
CGAATCTA | 0.013
CCCTGTTC | -0.141

Sequence | PBM E-score
TGGCAGAA | 0.0508
GTTGCATA | 0.0592
CTTCCAAG | -0.122
ATCTCGCG | 0.256
GAGCACAC | -0.193
ACTGTTTA | -0.0208
AGTCTCAG | -0.0604
ATCTACTA | 0.0659
AAGCCATG | -0.0925
ATGTTAAC | 0.0833
CCAATCGA | 0.105
GATACTTA | 0.00706
AACATAAG | 0.261
CACTCAGG | -0.0655
AACCCACC | 0.0212
AGCAGCTA | 0.147
GACACCGA | -0.104
GTCGATCA | 0.0162
GGTTTCAA | 0.0476
GCCCGGTA | -0.174
ACTTTCTC | -0.114
AATGCATG | 0.254
CGGACTGC | 0.1
ATTGAGCG | 0.0304
CGTAAATA | 0.137

Sequence | PBM E-score
ATTTTCCG | 0.304
ATTCGTTA | 0.158
AATCTTGA | -0.0311
GCCCCCTA | -0.241
AGATCGAG | 0.0408
GCTGCCCC | -0.107
ACCCATAA | 0.0378
AGGCATGG | -0.135
CAGTTAAC | 0.031
GGGGTCAA | -0.115
AAACGAGA | 0.0152
AATGCTTA | 0.177
CGCCCGCA | 0.0435
CACGCTAA | 0.0356
AGTGCCTG | -0.153
GGAAGTCA | -0.0654
AGCATGCC | -0.111
ACTAAACA | 0.162
CGTCATTA | -0.022
AACCAACA | 0.0201
CGTTTATC | 0.186
ATCATCCC | 0.0336
